These are yes or no findings as the source states them, for the method shown. Some results given as binding are weak or reduced against the parent protein; the word gives no strength.
What was measured:
[1] = biological target: V5-tagged IL13Rα2TF-Fc target protein; assay: capture ELISA, Protein A capture, culture medium, peroxidase-conjugated goat anti-human IgG F(ab')2 detection, TMB read at 450 nm (Example 21)
[2] = biological target: V5-tagged IL13Rα2TF-Fc target protein; assay: capture ELISA, wells coated with recombinant Protein A, culture medium, captured target detected with peroxidase-conjugated goat anti-human IgG F(ab')2 (Example 22)
[3] = biological target: V5-tagged IL13Rα2TF-Fc target protein; assay: capture ELISA, wells coated with recombinant purified Protein A, culture medium, peroxidase-conjugated goat anti-human IgG F(ab')2 detection (Example 20)
[4] = biological target: V5-tagged IL13Rα2TF-Fc target protein; assay: capture ELISA, wells coated with recombinant purified Protein A, culture medium, peroxidase-conjugated goat anti-human IgG F(ab')2 detection (Example 19)

Measured: binding

recombinant purified Protein A (from UniProt P38507 37-327)
binds: all assays above
